Measurements as given in paper PMC12315821.
Results are given in words; binding and its absence hold for the method and conditions named. Binding seen in cells or lysates may run through a third protein. Some binding calls cover weakened binding; strength is not graded here. For part of these data: Where a sequence is shown, tags or fusion partners need not be part of it. One block for each molecule: values may come before it.

By UniProt entry, the sequences of proteins in these tests, tags left out. Residues count along the entry.
UniProt Q86WV6: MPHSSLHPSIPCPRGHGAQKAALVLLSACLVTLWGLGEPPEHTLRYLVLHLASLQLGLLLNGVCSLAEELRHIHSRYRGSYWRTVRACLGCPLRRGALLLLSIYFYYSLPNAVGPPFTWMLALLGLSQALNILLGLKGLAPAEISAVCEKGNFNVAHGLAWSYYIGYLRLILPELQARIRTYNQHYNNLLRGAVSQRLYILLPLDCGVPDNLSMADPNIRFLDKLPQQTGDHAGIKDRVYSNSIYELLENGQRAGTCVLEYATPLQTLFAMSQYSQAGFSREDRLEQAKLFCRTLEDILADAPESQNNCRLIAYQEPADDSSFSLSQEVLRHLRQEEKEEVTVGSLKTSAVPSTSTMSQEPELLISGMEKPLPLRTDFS
UniProt Q15843, residues 1-76: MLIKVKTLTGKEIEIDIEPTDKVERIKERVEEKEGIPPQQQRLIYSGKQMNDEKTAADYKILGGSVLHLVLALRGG

Key:
[1] = target: T1, HA-TRIM56 (UniProt Q9BRZ2); assay: co-IP; anti-HA precipitation from 293T lysates transfected with MYC-NEDD8 or Flag-STING and HA-TRIM56 constructs
T1 sequence: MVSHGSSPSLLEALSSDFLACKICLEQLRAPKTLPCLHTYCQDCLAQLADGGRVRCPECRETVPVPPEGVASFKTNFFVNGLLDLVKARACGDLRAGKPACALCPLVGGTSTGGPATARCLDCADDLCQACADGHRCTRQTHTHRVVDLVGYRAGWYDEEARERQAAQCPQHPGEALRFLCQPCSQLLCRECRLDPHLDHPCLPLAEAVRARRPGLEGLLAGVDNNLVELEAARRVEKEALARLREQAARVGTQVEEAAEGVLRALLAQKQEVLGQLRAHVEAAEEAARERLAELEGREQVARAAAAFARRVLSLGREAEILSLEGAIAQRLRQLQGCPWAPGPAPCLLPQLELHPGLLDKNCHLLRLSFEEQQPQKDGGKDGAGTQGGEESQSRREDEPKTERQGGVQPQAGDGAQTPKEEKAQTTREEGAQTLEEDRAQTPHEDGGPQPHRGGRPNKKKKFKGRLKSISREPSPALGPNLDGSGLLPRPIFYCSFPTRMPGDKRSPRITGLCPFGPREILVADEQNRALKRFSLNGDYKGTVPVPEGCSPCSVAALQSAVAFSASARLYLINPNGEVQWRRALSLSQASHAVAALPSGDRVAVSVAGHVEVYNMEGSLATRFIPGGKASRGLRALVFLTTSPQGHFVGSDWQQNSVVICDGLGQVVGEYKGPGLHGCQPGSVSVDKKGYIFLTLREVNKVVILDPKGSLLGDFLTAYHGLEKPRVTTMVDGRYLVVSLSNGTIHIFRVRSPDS

[2] = target: STING, endogenous in SH-SY5Y cells (human (endogenous in SH-SY5Y)) (UniProt Q86WV6); assay: co-IP; endogenous proteins in SH-SY5Y lysates, cells with or without NETs; Pierce Crosslink Magnetic Co-IP Kit, lysates with antibody-bound beads overnight at 4°C; for NEDD8-STING (Figure 7J) MG132 (10 μM) for 6 hours and TRIM56 knockdown
[3] = target: T2, TRIM56, endogenous in SH-SY5Y cells (human (endogenous in SH-SY5Y)) (UniProt Q9BRZ2); assay: as above
T2 sequence: T1 sequence

[4] = target: neuronal precursor cell-expressed developmentally down-regulated protein 8 (NEDD8), endogenous in SH-SY5Y cells (human (endogenous in SH-SY5Y)) (UniProt Q15843); assay: as above
[5] = target: Flag-STING (UniProt Q86WV6); assay: co-IP; anti-Flag precipitation from 293T lysates transfected with HA-TRIM56 and Flag-STING constructs

binding [1]: binds
Molecule: MYC-NEDD8 (from UniProt Q15843 1-76)

binding [2]: binds
Molecule: neuronal precursor cell-expressed developmentally down-regulated protein 8 (NEDD8), endogenous in SH-SY5Y cells (from UniProt Q15843 1-76)

binding [1]: binds
Molecule: Flag-STING (from UniProt Q86WV6 1-379)

binding [3]: binds
Molecule: STING, endogenous in SH-SY5Y cells (from UniProt Q86WV6 1-379)

binding [4]: binds
B1: TRIM56, endogenous in SH-SY5Y cells (protein, UniProt Q9BRZ2 1-755)
chain: T1 sequence

binding [5]: binds
B2: HA-TRIM56 (protein, UniProt Q9BRZ2 1-755)
chain: T1 sequence
